Data reported in publication PMC7607167.
These are yes or no findings as the source states them, for the method shown. For some assays here: Binding seen in cells or lysates may run through a third protein. Some binding calls cover weakened binding; strength is not graded here.

Protein sequences, listed by entry. Tags and fused reporters are not part of them.
UniProt Q9BYV9: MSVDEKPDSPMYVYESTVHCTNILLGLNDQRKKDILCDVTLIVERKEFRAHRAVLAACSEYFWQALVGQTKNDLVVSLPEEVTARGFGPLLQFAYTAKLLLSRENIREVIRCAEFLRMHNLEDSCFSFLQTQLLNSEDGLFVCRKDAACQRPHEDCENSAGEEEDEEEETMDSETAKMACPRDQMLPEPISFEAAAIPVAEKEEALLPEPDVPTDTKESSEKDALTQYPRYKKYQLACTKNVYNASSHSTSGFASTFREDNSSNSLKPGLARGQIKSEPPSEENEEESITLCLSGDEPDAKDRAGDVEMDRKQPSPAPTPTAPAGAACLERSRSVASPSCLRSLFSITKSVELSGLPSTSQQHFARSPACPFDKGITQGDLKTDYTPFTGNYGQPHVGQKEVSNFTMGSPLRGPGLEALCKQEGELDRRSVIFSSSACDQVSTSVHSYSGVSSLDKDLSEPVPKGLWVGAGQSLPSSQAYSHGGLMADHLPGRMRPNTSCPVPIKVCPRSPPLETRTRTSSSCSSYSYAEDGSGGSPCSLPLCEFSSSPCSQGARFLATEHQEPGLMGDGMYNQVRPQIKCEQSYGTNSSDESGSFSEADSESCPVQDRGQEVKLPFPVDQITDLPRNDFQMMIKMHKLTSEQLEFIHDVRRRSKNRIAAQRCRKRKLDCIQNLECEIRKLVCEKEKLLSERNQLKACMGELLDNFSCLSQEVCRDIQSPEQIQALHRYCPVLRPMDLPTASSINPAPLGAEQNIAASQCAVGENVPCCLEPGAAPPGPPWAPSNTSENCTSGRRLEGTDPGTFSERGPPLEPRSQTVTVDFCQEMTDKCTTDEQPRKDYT
UniProt P35637: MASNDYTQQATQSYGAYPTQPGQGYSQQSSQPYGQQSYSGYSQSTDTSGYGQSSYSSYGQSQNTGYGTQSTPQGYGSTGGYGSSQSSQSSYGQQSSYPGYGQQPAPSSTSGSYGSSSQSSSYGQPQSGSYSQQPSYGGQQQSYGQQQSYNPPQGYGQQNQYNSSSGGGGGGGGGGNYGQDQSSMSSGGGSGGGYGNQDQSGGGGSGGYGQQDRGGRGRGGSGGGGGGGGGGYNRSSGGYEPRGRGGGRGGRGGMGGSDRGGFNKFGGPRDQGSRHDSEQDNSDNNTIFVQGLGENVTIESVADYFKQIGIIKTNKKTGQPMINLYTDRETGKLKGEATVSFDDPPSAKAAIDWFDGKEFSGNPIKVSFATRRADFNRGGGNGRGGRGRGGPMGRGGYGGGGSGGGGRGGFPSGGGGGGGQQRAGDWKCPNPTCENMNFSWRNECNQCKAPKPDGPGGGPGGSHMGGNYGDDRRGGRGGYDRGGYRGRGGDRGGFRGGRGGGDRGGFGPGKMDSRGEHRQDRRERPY

What was measured:
[1] = molecular target: BTB and CNC homolog 2 (BACH2), endogenous (human (endogenous in glioma cells, U87 and U251)) (UniProt Q9BYV9); assay: co-IP; Pierce Co-IP kit; antibody coupled to resin at 4 °C overnight; glioma cell lysates precipitated with anti-BACH2 or anti-IgG, blotted with anti-FUS and anti-BACH2
[2] = molecular target: GST-BACH2 fusion protein (BTB and CNC homolog 2) (UniProt Q9BYV9); assay: pull-down; GST or GST-BACH2 bound to GSH-agarose beads incubated with purified His-FUS for 6 h at 4 °C; eluate blotted with anti-GST and anti-FUS; both purified

Row | Substance | binding [1] | binding [2]
1 | Fused in sarcoma (FUS), endogenous (from UniProt P35637 1-526) | binds | 
2 | His-FUS fusion protein (fused in sarcoma) (from UniProt P35637 1-526) |  | binds
